Literature values, collected in patent publication US20060160701A1, “Natural herbicidal agent containing momilactones A and B identified in and isolated from rice hulls” (Konkuk University Industrial Cooperation Corp., priority 2005, published 2006).
Some entries share one result that the patent states for a list of compounds. At least one structure is not confirmed: it was looked up by name or label, or the drawing left a doubt.

Tested on: rice roots
Conditions: Kato et al., Tetrahederon Letters 39, 1973; cited from earlier work

Structure (SMILES): C=C[C@]1(C)CC[C@@H]2C(=C[C@H]3OC(=O)[C@@]4(C)C(=O)CC[C@@]2(C)[C@@H]34)C1 [Momilactone A]
- concentration inhibiting the growth of rice roots: less than 100 ppm
